Experimental findings from patent US20250099478A1, “PLASMA KALLIKREIN INHIBITORS” (Merck Sharp & Dohme LLC, priority 2022, published 2025) are described below.

Sequences of proteins named here, by UniProt entry; tags and fusion partners are left off. Residues count along the entry.
UniProt P03952, 391-638 limits assumed: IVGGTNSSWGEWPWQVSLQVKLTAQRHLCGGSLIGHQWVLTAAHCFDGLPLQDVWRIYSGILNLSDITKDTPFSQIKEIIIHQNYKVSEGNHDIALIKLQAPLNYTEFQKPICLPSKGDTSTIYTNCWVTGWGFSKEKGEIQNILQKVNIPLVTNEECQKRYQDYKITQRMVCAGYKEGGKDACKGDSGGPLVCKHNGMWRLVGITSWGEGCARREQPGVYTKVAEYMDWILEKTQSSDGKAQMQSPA
UniProt P03952, 20-390 partner limits assumed: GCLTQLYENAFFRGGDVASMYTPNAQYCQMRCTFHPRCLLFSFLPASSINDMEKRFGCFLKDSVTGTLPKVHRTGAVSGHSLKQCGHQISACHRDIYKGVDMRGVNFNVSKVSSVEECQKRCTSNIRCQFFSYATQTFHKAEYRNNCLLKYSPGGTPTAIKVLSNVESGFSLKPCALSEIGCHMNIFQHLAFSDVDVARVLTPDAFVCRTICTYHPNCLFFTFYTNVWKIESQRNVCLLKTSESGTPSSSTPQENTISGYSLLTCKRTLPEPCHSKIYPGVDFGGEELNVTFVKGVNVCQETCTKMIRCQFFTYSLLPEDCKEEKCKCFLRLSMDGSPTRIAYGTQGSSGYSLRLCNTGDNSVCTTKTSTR
UniProt P03951, 388-625 limits assumed: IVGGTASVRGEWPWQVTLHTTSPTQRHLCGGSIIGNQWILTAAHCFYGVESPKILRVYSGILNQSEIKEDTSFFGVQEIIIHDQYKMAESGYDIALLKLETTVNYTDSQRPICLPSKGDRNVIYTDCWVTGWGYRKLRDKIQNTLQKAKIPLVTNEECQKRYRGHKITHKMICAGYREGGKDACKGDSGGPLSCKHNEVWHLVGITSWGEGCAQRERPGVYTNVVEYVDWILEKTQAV
UniProt P03951, 19-387 partner limits assumed: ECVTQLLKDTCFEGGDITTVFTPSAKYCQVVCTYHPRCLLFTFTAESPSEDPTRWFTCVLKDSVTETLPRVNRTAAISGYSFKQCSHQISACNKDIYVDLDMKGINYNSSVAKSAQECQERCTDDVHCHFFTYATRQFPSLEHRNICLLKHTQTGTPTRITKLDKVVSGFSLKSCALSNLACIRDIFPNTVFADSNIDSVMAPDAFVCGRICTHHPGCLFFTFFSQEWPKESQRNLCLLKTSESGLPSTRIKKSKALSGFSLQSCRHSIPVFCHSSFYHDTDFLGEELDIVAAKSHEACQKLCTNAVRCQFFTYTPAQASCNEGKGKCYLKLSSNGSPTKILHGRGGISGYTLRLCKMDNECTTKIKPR

The match of structure and compound is tentative.

The target of experiment [1] is Human plasma kallikrein (Homo sapiens, UniProt P03952). Kind of experiment: Plasma Kallikrein Assay. To be noted: read-out: PKal IC50; purified Human plasma kallikrein 0.5 nM, substrate Acetyl-K-P-R-AFC.
For experiment [2], the target named is human factor XIa (Homo sapiens, UniProt P03951). Kind of experiment: Factor XIa Assay. The settings on record: read-out: Factor XIa IC50; human factor XIa 0.04 nM, substrate GPR-AFC, 25° C. How it is done:
The effectiveness of a compound of the present invention as an inhibitor of Coagulation factor XIa can be determined using a relevant purified serine protease, and an appropriate synthetic substrate. The rate of hydrolysis of the chromogenic or fluorogenic substrate by the relevant serine protease was measured both in the absence and presence of compounds of the present invention. Assays were conducted at rt or at 37° C. […] A decrease in the rate of fluorescence change in the presence of inhibitor is indicative of enzyme inhibition. Such methods are known to one skilled in the art. The results of this assay are expressed as the half-maximal inhibitory concentrations (IC50), or the inhibitory constant, Ki.
Compounds were pre-incubated for 30 min at 25° C. with human (0.04 nM) factor XIa in 50 mM HEPES buffer with 150 mM sodium chloride, 5 mM calcium chloride, 0.1% PEG 8000, pH 7.4. factor XIa enzymatic activity was determined by addition of the substrate glycine-proline-arginine-7-amido-4-trifluoromethylcoumarin (GPR-AFC) and measurement of the fluorescence at 400/505 nm after a 60 min incubation at 25° C. The % inhibition for each data point was calculated from the data and analyzed using the log (inhibitor) vs. response four parameters equation to determine the half-maximal inhibitory concentrations (IC50). […]

For the compound `O=C1CC2(CCCN(C(=O)c3nnc(Cc4ccccc4)[nH]3)C2)c2c(ccc(Cl)c2F)N1` (centres unmarked), the IC50 (as a rule, the concentration needed to halve the response being measured) in experiment [1] amounted to 0.0431 µM; in experiment [2], 8.78 µM.
